Results as given in the supplement of paper PMC8728848.
The list shows a part of the results.

Columns and labels:
Test in all cases: glycan array binding signal (z-score within array); higher = stronger binding
Conditions in all cases: glycan notation: IUPAC condensed, linker removed
[1] = biological target: Neu5Ac(a2-6)Gal
Summary of the method: (§1)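 The Consortium for Functional Glycomics database supplied 3228 glycan arrays, of which those lacking an available protein sequence were dropped. The binding signal, a within-array Z-score, was averaged across arrays of the same protein sequence and across linkers. Negative scores can be read as non-binding.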

[2] = biological target: Neu5Ac(a2-6)Gal(b1-3)GlcNAc(b1-3)[Gal(b1-4)GlcNAc(b1-6)]Gal(b1-4)Glc
Summary of the method: as §1

[3] = biological target: Neu5Ac(a2-6)Gal(b1-4)Glc
Summary of the method: as §1

[4] = biological target: Neu5Ac(a2-6)Gal(b1-4)GlcNAc
Summary of the method: as §1

[5] = biological target: Neu5Ac(a2-6)Gal(b1-4)GlcNAc(b1-2)Man
Summary of the method: as §1

[6] = biological target: Neu5Ac(a2-6)Gal(b1-4)GlcNAc(b1-2)Man(a1-3)Man(b1-4)GlcNAc(b1-4)GlcNAc
Summary of the method: as §1

[7] = biological target: Neu5Ac(a2-6)Gal(b1-4)GlcNAc(b1-2)Man(a1-3)[Gal(b1-4)GlcNAc(b1-2)Man(a1-6)]Man(b1-4)GlcNAc(b1-4)GlcNAc
Summary of the method: as §1

[8] = biological target: Neu5Ac(a2-6)Gal(b1-4)GlcNAc(b1-2)Man(a1-3)[GlcNAc(b1-2)Man(a1-6)]Man(b1-4)GlcNAc(b1-4)GlcNAc
Summary of the method: as §1

[9] = biological target: Neu5Ac(a2-6)Gal(b1-4)GlcNAc(b1-2)Man(a1-3)[GlcNAc(b1-4)][Neu5Ac(a2-6)Gal(b1-4)GlcNAc(b1-2)Man(a1-6)]Man(b1-4)GlcNAc(b1-4)GlcNAc
Summary of the method: as §1

[10] = biological target: Neu5Ac(a2-6)Gal(b1-4)GlcNAc(b1-2)Man(a1-3)[Man(a1-6)]Man(b1-4)GlcNAc(b1-4)GlcNAc
Summary of the method: as §1

[11] = biological target: Neu5Ac(a2-6)Gal(b1-4)GlcNAc(b1-2)Man(a1-3)[Neu5Ac(a2-3)Gal(b1-4)GlcNAc(b1-2)Man(a1-6)]Man(b1-4)GlcNAc(b1-4)GlcNAc
Summary of the method: as §1

[12] = biological target: Neu5Ac(a2-6)Gal(b1-4)GlcNAc(b1-2)Man(a1-3)[Neu5Ac(a2-6)Gal(b1-4)GlcNAc(b1-2)Man(a1-6)]Man(b1-4)GlcNAc(b1-4)GlcNAc
Summary of the method: as §1

[13] = biological target: Neu5Ac(a2-6)Gal(b1-4)GlcNAc(b1-2)Man(a1-3)[Neu5Ac(a2-6)Gal(b1-4)GlcNAc(b1-2)Man(a1-6)]Man(b1-4)GlcNAc(b1-4)[Fuc(a1-6)]GlcNAc
Summary of the method: as §1

[14] = biological target: Neu5Ac(a2-6)Gal(b1-4)GlcNAc(b1-2)Man(a1-6)Man(b1-4)GlcNAc(b1-4)GlcNAc
Summary of the method: as §1

[15] = biological target: Neu5Ac(a2-6)Gal(b1-4)GlcNAc(b1-2)Man(a1-6)[Gal(b1-4)GlcNAc(b1-2)Man(a1-3)]Man(b1-4)GlcNAc(b1-4)GlcNAc
Summary of the method: as §1

[16] = biological target: Neu5Ac(a2-6)Gal(b1-4)GlcNAc(b1-2)Man(a1-6)[GlcNAc(b1-2)Man(a1-3)]Man(b1-4)GlcNAc(b1-4)GlcNAc
Summary of the method: as §1

[17] = biological target: Neu5Ac(a2-6)Gal(b1-4)GlcNAc(b1-2)Man(a1-6)[Man(a1-3)]Man(b1-4)GlcNAc(b1-4)GlcNAc
Summary of the method: as §1

[18] = biological target: Neu5Ac(a2-6)Gal(b1-4)GlcNAc(b1-2)[Neu5Ac(a2-6)Gal(b1-4)GlcNAc(b1-4)]Man(a1-3)[GlcNAc(b1-4)][Neu5Ac(a2-6)Gal(b1-4)GlcNAc(b1-2)[Neu5Ac(a2-6)Gal(b1-4)GlcNAc(b1-6)]Man(a1-6)]Man(b1-4)GlcNAc(b1-4)GlcNAc
Summary of the method: as §1

[19] = biological target: Neu5Ac(a2-6)Gal(b1-4)GlcNAc(b1-2)[Neu5Ac(a2-6)Gal(b1-4)GlcNAc(b1-4)]Man(a1-3)[GlcNAc(b1-4)][Neu5Ac(a2-6)Gal(b1-4)GlcNAc(b1-4)Man(a1-6)]Man(b1-4)GlcNAc(b1-4)GlcNAc
Summary of the method: as §1

[20] = biological target: Neu5Ac(a2-6)Gal(b1-4)GlcNAc(b1-2)[Neu5Ac(a2-6)Gal(b1-4)GlcNAc(b1-6)]Man(a1-6)[Neu5Ac(a2-6)Gal(b1-4)GlcNAc(b1-2)Man(a1-3)][GlcNAc(b1-4)]Man(b1-4)GlcNAc(b1-4)GlcNAc
Summary of the method: as §1

[21] = biological target: Neu5Ac(a2-6)Gal(b1-4)GlcNAc(b1-3)Gal(b1-3)GlcNAc
Summary of the method: as §1

[22] = biological target: Neu5Ac(a2-6)Gal(b1-4)GlcNAc(b1-3)Gal(b1-4)GlcNAc
Summary of the method: as §1

[23] = biological target: Neu5Ac(a2-6)Gal(b1-4)GlcNAc(b1-3)Gal(b1-4)GlcNAc(b1-2)Man(a1-3)[Neu5Ac(a2-6)Gal(b1-4)GlcNAc(b1-3)Gal(b1-4)GlcNAc(b1-2)Man(a1-6)]GalNAc
Summary of the method: as §1

[24] = biological target: Neu5Ac(a2-6)Gal(b1-4)GlcNAc(b1-3)Gal(b1-4)GlcNAc(b1-3)Gal(b1-4)GlcNAc
Summary of the method: as §1

[25] = biological target: Neu5Ac(a2-6)Gal(b1-4)GlcNAc(b1-3)Gal(b1-4)GlcNAc(b1-3)Gal(b1-4)GlcNAc(b1-2)Man(a1-3)[Neu5Ac(a2-6)Gal(b1-4)GlcNAc(b1-3)Gal(b1-4)GlcNAc(b1-3)Gal(b1-4)GlcNAc(b1-2)Man(a1-6)]GalNAc
Summary of the method: as §1

[26] = biological target: Neu5Ac(a2-6)Gal(b1-4)GlcNAc(b1-3)Gal(b1-4)GlcNAc(b1-3)GalNAc
Summary of the method: as §1

[27] = biological target: Neu5Ac(a2-6)Gal(b1-4)GlcNAc(b1-3)Gal(b1-4)GlcNAc(b1-3)[Neu5Ac(a2-6)Gal(b1-4)GlcNAc(b1-3)Gal(b1-4)GlcNAc(b1-6)]GalNAc
Summary of the method: as §1

[28] = biological target: Neu5Ac(a2-6)Gal(b1-4)GlcNAc(b1-3)Gal(b1-4)GlcNAc(b1-6)[Gal(b1-3)]GalNAc
Summary of the method: as §1

[29] = biological target: Neu5Ac(a2-6)Gal(b1-4)GlcNAc(b1-3)Gal(b1-4)[Fuc(a1-3)]GlcNAc(b1-3)Gal(b1-4)[Fuc(a1-3)]GlcNAc
Summary of the method: as §1

[30] = biological target: Neu5Ac(a2-6)Gal(b1-4)GlcNAc(b1-3)GalNAc
Summary of the method: as §1

[31] = biological target: Neu5Ac(a2-6)Gal(b1-4)GlcNAc(b1-3)[Neu5Ac(a2-6)Gal(b1-4)GlcNAc(b1-6)]GalNAc
Summary of the method: as §1

[32] = biological target: Neu5Ac(a2-6)Gal(b1-4)GlcNAc(b1-6)GalNAc
Summary of the method: as §1

[33] = biological target: Neu5Ac(a2-6)Gal(b1-4)GlcNAc(b1-6)[Gal(b1-3)GlcNAc(b1-3)]Gal(b1-4)Glc
Summary of the method: as §1

[34] = biological target: Neu5Ac(a2-6)Gal(b1-4)GlcNAc(b1-6)[Gal(b1-3)]GalNAc
Summary of the method: as §1

[35] = biological target: Neu5Ac(a2-6)Gal(b1-4)GlcNAc6S
Summary of the method: as §1

[36] = biological target: Neu5Ac(a2-6)GalNAc
Summary of the method: as §1

[37] = biological target: Neu5Ac(a2-6)GalNAc(b1-4)GlcNAc
Summary of the method: as §1

[38] = biological target: Neu5Ac(a2-6)GalNAc(b1-4)GlcNAc6S
Summary of the method: as §1

B1: SUN4 (Saccharomyces cerevisiae), P53616 (protein)
chain: MGSSHHHHHHSSGLVPRGSHNGSIYGDLADFSGPYEKFEDGTIPCGQFPSGQGVIPISWLDEGGWSGVENTDTSTGGSCKEGSYCSYACQPGMSKTQWPSDQPSDGRSIGGLLCKDGYLYRSNTDTDYLCEWGVDAAYVVSELSNDVAICRTDYPGTENMVIPTYVQAGDSLPLTVVDQDTYYTWQGLKTSAQYYVNNAGISVEDACVWGSSSSGVGNWAPLNFGAGSSDGVAYLSLIPNPNNGNALNFNVKIVAADDSSTVNGECIYENGSFSGGSDGCTVSVTAGKAKFVLYN
Question: Which results are given for B1?
Answer: glycan array binding signal (z-score) [1]: 1.38; glycan array binding signal (z-score) [2]: -0.91; glycan array binding signal (z-score) [3]: -0.344; glycan array binding signal (z-score) [4]: -0.205; glycan array binding signal (z-score) [5]: -0.293; glycan array binding signal (z-score) [6]: -0.036; glycan array binding signal (z-score) [7]: -0.726; glycan array binding signal (z-score) [8]: -0.903; glycan array binding signal (z-score) [9]: 0.646; glycan array binding signal (z-score) [10]: 0.926; glycan array binding signal (z-score) [11]: -0.297; glycan array binding signal (z-score) [12]: 0.023; glycan array binding signal (z-score) [13]: 0.827; glycan array binding signal (z-score) [14]: 0.342; glycan array binding signal (z-score) [15]: -0.358; glycan array binding signal (z-score) [16]: -0.298; glycan array binding signal (z-score) [17]: 1.05; glycan array binding signal (z-score) [18]: 1.09; glycan array binding signal (z-score) [19]: -0.299; glycan array binding signal (z-score) [20]: 1.28; glycan array binding signal (z-score) [21]: -0.754; glycan array binding signal (z-score) [22]: 0.015; glycan array binding signal (z-score) [23]: 0.933; glycan array binding signal (z-score) [24]: -0.333; glycan array binding signal (z-score) [25]: 0.851; glycan array binding signal (z-score) [26]: -0.016; glycan array binding signal (z-score) [27]: 0.082; glycan array binding signal (z-score) [28]: 0.227; glycan array binding signal (z-score) [29]: -0.564; glycan array binding signal (z-score) [30]: 0.242; glycan array binding signal (z-score) [31]: 0.213; glycan array binding signal (z-score) [32]: 1.03; glycan array binding signal (z-score) [33]: -0.171; glycan array binding signal (z-score) [34]: -0.136; glycan array binding signal (z-score) [35]: -1.46; glycan array binding signal (z-score) [36]: -1.52; glycan array binding signal (z-score) [37]: -1.09; glycan array binding signal (z-score) [38]: 0.559
